Laboratory results: PubChem BioAssay AID504808 (Drosophila RNAi Screening Center, 2011)
Screen: 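Fly genes required to hold E2F transcription in check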 (primary screen). Cells: Drosophila S2 cells. Knock-down reagent: long dsRNA against Drosophila genes. Measurement: 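Dual luciferase plate measurements; E2F-specific signal taken as firefly over Renilla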. Scale: E2F firefly: higher = more E2F reporter activity; Renilla normaliser: higher = more normaliser reporter signal. Hit rule: 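a knock-down counted as active when the firefly/Renilla E2F signal rose above 50%, a threshold chosen arbitrarily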.
In all, the deposit lists about 21,000 reagents; shown is a random part of those with a known target gene and a result. Over the whole deposit, 18 (0.084%) got an active call. 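Raw counts without plate normalisation, one of two replicates; the ratio scores behind the calls were not deposited.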 Entries without a mark were called inactive. A plus sign joins genes that one reagent is predicted to hit. Not given: the amount of reagent, the time to read-out.

With knock-down of mAcon1 [DRSC01853], the screen gave E2F firefly, rep 1 = 97406; Renilla normaliser, rep 1 = 4419.
Silencing of hpRNA:CR32205 [DRSC09890] resulted in: E2F firefly, rep 1 = 1.40e5; Renilla normaliser, rep 1 = 7729.
CG42506 (retired record) + CG43759 [DRSC19464] showed E2F firefly, rep 1 = 1.57e5; Renilla normaliser, rep 1 = 5489.
With knock-down of CG42506 (retired record) + CG43759 [DRSC19543], the record shows E2F firefly, rep 1 = 1.32e5; Renilla normaliser, rep 1 = 6840.
Against CG15914 [DRSC19739], the values are E2F firefly, rep 1 = 2.41e5; Renilla normaliser, rep 1 = 7659.
Depletion of CG5381 [DRSC02852] resulted in: E2F firefly, rep 1 = 1.63e5; Renilla normaliser, rep 1 = 5088.
Knock-down of ATPsynO [DRSC16780] resulted in: E2F firefly, rep 1 = 68442; Renilla normaliser, rep 1 = 3211.
Against CG5001 [DRSC00673], the entry reads E2F firefly, rep 1 = 1.66e5; Renilla normaliser, rep 1 = 5886.
CG13622 [DRSC14624] showed E2F firefly, rep 1 = 1.12e5; Renilla normaliser, rep 1 = 5600.
For CG2070 [DRSC06814] the deposit lists E2F firefly, rep 1 = 1.21e5; Renilla normaliser, rep 1 = 4531.
Knock-down of CtsL3 [DRSC12171] gave: E2F firefly, rep 1 = 69062; Renilla normaliser, rep 1 = 3638.
Silencing of CG4991 [DRSC19928] resulted in: E2F firefly, rep 1 = 1.61e5; Renilla normaliser, rep 1 = 5079.
CG11112 [DRSC06038] gave E2F firefly, rep 1 = 1.37e5; Renilla normaliser, rep 1 = 4850.
After knock-down of alpha-Cat [DRSC11917], the record shows E2F firefly, rep 1 = 71013; Renilla normaliser, rep 1 = 3601.

3 of these entries, set out differently.
{"predicted target":"ATPsynO","dsRNA":"DRSC16780","E2F firefly, rep 1":68442,"Renilla normaliser, rep 1":3211}
{"predicted target":"CG5001","dsRNA":"DRSC00673","E2F firefly, rep 1":1.66e5,"Renilla normaliser, rep 1":5886}
{"predicted target":"CG13622","dsRNA":"DRSC14624","E2F firefly, rep 1":1.12e5,"Renilla normaliser, rep 1":5600}

The results go on.
Knock-down of CaMKII [DRSC17214] gave: E2F firefly, rep 1 = 1906; Renilla normaliser, rep 1 = 908.
CG30325 [DRSC05685] gave E2F firefly, rep 1 = 1.78e5; Renilla normaliser, rep 1 = 5959.
With knock-down of CG12360 (retired record) [DRSC14505] the results were E2F firefly, rep 1 = 99350; Renilla normaliser, rep 1 = 5492.
Silencing of CG6225 [DRSC15996] gave: E2F firefly, rep 1 = 1.48e5; Renilla normaliser, rep 1 = 6270.
Knock-down of Oxp [DRSC06712] came out at: E2F firefly, rep 1 = 1.41e5; Renilla normaliser, rep 1 = 5602.
Silencing of CG3119 [DRSC00569] came out at: E2F firefly, rep 1 = 1.54e5; Renilla normaliser, rep 1 = 5261.
Fim [DRSC20243] showed E2F firefly, rep 1 = 1.61e5; Renilla normaliser, rep 1 = 6030.
After knock-down of CG5096 [DRSC02813] the results were E2F firefly, rep 1 = 1.63e5; Renilla normaliser, rep 1 = 4745.
After knock-down of CG11018 [DRSC06024], the record shows E2F firefly, rep 1 = 77762; Renilla normaliser, rep 1 = 3238.
Against Vm26Aa [DRSC03472] the deposit lists E2F firefly, rep 1 = 1.41e5; Renilla normaliser, rep 1 = 4301.
For CG30394 [DRSC04074], the entry reads E2F firefly, rep 1 = 1.04e5; Renilla normaliser, rep 1 = 4038.
Against CG30394 [DRSC04260], the values are E2F firefly, rep 1 = 1.14e5; Renilla normaliser, rep 1 = 4705.
CG31788 [DRSC01630] scored E2F firefly, rep 1 = 1.31e5; Renilla normaliser, rep 1 = 5195.
After knock-down of CG18335 [DRSC06723], the screen gave E2F firefly, rep 1 = 93128; Renilla normaliser, rep 1 = 3650.
